This note sets out measurements from patent US6350430B1 (Lion Bioscience Science AG, priority 1997, dated 2002).

This data set is described as follows: Boc solid-phase peptide synthesis; MBHA; 0.2 M HOBt and 0.2 M DIC. The following applies: whole synthesis, scale of the general procedure 100 mg MBHA resin.

HELM strings list residues between dots; [ac] is acetyl, [am] amide, other brackets name non-standard units.

“PEPTIDE1{[ac].[Nle].Q.H.[pI-D-Phe].R.[dW].G.[am]}$$$$V2.0”: the “purity (crude or final not stated)” value was “approximately 80 to 90% pure”.
